The results in this text go back to PMC6642263.

Chains of the proteins cited; added tags and fusions are not shown.
UniProt Q92769: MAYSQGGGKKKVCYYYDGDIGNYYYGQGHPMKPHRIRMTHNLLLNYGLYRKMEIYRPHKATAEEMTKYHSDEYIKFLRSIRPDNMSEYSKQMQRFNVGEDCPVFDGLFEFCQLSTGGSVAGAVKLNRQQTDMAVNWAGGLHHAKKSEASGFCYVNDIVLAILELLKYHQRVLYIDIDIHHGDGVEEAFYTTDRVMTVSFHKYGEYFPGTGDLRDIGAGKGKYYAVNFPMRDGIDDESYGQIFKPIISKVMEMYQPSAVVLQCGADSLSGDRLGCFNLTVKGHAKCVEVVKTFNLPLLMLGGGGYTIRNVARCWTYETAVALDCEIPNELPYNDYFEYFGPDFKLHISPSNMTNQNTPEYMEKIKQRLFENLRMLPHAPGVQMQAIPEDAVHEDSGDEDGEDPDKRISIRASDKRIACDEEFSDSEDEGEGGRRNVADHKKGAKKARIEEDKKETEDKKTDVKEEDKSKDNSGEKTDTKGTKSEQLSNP
UniProt Q13547: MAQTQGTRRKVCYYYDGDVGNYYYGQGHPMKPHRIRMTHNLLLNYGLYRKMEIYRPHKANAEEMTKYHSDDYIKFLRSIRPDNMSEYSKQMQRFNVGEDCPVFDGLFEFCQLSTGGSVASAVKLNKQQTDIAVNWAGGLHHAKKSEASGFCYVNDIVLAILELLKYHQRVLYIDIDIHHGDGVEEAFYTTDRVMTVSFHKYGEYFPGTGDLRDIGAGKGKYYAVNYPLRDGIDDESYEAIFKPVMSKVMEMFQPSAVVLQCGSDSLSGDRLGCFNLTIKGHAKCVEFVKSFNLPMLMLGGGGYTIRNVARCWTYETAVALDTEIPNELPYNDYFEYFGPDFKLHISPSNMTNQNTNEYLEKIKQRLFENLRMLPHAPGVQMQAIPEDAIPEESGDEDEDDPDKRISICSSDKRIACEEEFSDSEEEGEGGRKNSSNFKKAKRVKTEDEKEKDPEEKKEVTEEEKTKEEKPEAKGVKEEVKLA
UniProt P02340: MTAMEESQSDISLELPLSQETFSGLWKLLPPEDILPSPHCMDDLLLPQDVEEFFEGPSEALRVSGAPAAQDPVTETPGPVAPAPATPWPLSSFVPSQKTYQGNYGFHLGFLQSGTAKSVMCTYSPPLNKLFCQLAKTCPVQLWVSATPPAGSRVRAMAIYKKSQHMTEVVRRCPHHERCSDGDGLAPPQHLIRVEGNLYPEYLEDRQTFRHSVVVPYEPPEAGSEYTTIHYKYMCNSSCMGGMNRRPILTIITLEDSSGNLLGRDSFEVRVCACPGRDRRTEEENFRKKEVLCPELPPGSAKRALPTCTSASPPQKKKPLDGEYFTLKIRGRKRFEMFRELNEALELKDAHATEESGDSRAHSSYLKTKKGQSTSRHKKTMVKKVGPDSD

No constants are given. Whether binding was seen depends on the method and setting. For some of these results: Binding seen in cells or lysates may run through a third protein. Some entries that bind do so weakly or less than the wild type. For some of these results: Tags and fused reporters may be left off the sequences shown.

The target of one assay is His-HDAC2 (UniProt Q92769). The assay is described as follows: pull-down; His pull-down: His-HDAC1 or His-HDAC2 (beads bound, from E. coli) incubated overnight with GST-p53 (eluted, from E. coli), without or with FLAG-ZEB1 (FLAG peptide eluted, from 293T cells); both purified.
Assay [1] concerns the target His-HDAC1 (UniProt Q13547). The description is as above.
The next assay deals with His-p53 (UniProt P04637). Description: pull-down; His pull-down: recombinant His-p53 bound to Ni-NTA beads, co-incubated with FLAG-ZEB1 protein (FLAG peptide eluted); both purified.
Assay [2] addresses His-HDAC1 (UniProt Q13547). The assay is described as follows: pull-down; His pull-down: beads-bound His-p53, His-HDAC1 or His-HDAC2 incubated with lysates of HEK293T cells transfected with FLAG-ZEB1 full-length or truncated mutants, 4 °C overnight; only the target purified.
The target in a further assay is HA-p53 wild-type (UniProt P04637). The assay is described as follows: co-IP; lysates of 293T cells transfected with FLAG-ZEB1 and HA-p53 or HA-p53 fragments; IP lysis buffer 50 mM Tris-HCl, 150 mM NaCl, 1 mM EDTA, 1% NP40, pH 7.4.
Assay [3] concerns the target p53 (endogenous, human breast stromal CAFs) (human (endogenous in breast tumour CAFs)) (UniProt P04637). The assay is described as follows: co-IP; endogenous proteins in lysates of mouse and human stromal CAFs; IP lysis buffer 50 mM Tris-HCl, 150 mM NaCl, 1 mM EDTA, 1% NP40, pH 7.4; Protein A/G agarose beads.
Assay [4] addresses p53 (endogenous, mouse breast stromal CAFs) (mouse (endogenous in mammary tumour CAFs)) (UniProt P02340). Described as above.

B1: FLAG-ZEB1 full-length (protein, UniProt P37275 1-1124)
chain: MADGPRCKRRKQANPRRNNVTNYNTVVETNSDSDDEDKLHIVEEESVTDAADCEGVPEDDLPTDQTVLPGRSSEREGNAKNCWEDDRKEGQEILGPEAQADEAGCTVKDDECESDAENEQNHDPNVEEFLQQQDTAVIFPEAPEEDQRQGTPEASGHDENGTPDAFSQLLTCPYCDRGYKRFTSLKEHIKYRHEKNEDNFSCSLCSYTFAYRTQLERHMTSHKSGRDQRHVTQSGCNRKFKCTECGKAFKYKHHLKEHLRIHSGEKPYECPNCKKRFSHSGSYSSHISSKKCISLIPVNGRPRTGLKTSQCSSPSLSASPGSPTRPQIRQKIENKPLQEQLSVNQIKTEPVDYEFKPIVVASGINCSTPLQNGVFTGGGPLQATSSPQGMVQAVVLPTVGLVSPISINLSDIQNVLKVAVDGNVIRQVLENNQANLASKEQETINASPIQQGGHSVISAISLPLVDQDGTTKIIINYSLEQPSQLQVVPQNLKKENPVATNSCKSEKLPEDLTVKSEKDKSFEGGVNDSTCLLCDDCPGDINALPELKHYDLKQPTQPPPLPAAEAEKPESSVSSATGDGNLSPSQPPLKNLLSLLKAYYALNAQPSAEELSKIADSVNLPLDVVKKWFEKMQAGQISVQSSEPSSPEPGKVNIPAKNNDQPQSANANEPQDSTVNLQSPLKMTNSPVLPVGSTTNGSRSSTPSPSPLNLSSSRNTQGYLYTAEGAQEEPQVEPLDLSLPKQQGELLERSTITSVYQNSVYSVQEEPLNLSCAKKEPQKDSCVTDSEPVVNVIPPSANPINIAIPTVTAQLPTIVAIADQNSVPCLRALAANKQTILIPQVAYTYSTTVSPAVQEPPLKVIQPNGNQDERQDTSSEGVSNVEDQNDSDSTPPKKKMRKTENGMYACDLCDKIFQKSSSLLRHKYEHTGKRPHECGICKKAFKHKHHLIEHMRLHSGEKPYQCDKCGKRFSHSGSYSQHMNHRYSYCKREAEERDSTEQEEAGPEILSNEHVGARASPSQGDSDERESLTREEDEDSEKEEEEEDKEMEELQEEKECEKPQGDEEEEEEEEEVEEEEVEEAENEGEEAKTEGLMKDDRAESQASSLGQKVGESSEQVSEEKTNEA
With B1, the binding entry in the assay with His-HDAC2, with His-HDAC1 [1], with His-p53, with His-HDAC1 [2] and with HA-p53 wild-type was “binds” in each case.

B2: ZEB1 (endogenous, human breast stromal CAFs) (protein, UniProt P37275 1-1124)
chain: MADGPRCKRRKQANPRRNNVTNYNTVVETNSDSDDEDKLHIVEEESVTDAADCEGVPEDDLPTDQTVLPGRSSEREGNAKNCWEDDRKEGQEILGPEAQADEAGCTVKDDECESDAENEQNHDPNVEEFLQQQDTAVIFPEAPEEDQRQGTPEASGHDENGTPDAFSQLLTCPYCDRGYKRFTSLKEHIKYRHEKNEDNFSCSLCSYTFAYRTQLERHMTSHKSGRDQRHVTQSGCNRKFKCTECGKAFKYKHHLKEHLRIHSGEKPYECPNCKKRFSHSGSYSSHISSKKCISLIPVNGRPRTGLKTSQCSSPSLSASPGSPTRPQIRQKIENKPLQEQLSVNQIKTEPVDYEFKPIVVASGINCSTPLQNGVFTGGGPLQATSSPQGMVQAVVLPTVGLVSPISINLSDIQNVLKVAVDGNVIRQVLENNQANLASKEQETINASPIQQGGHSVISAISLPLVDQDGTTKIIINYSLEQPSQLQVVPQNLKKENPVATNSCKSEKLPEDLTVKSEKDKSFEGGVNDSTCLLCDDCPGDINALPELKHYDLKQPTQPPPLPAAEAEKPESSVSSATGDGNLSPSQPPLKNLLSLLKAYYALNAQPSAEELSKIADSVNLPLDVVKKWFEKMQAGQISVQSSEPSSPEPGKVNIPAKNNDQPQSANANEPQDSTVNLQSPLKMTNSPVLPVGSTTNGSRSSTPSPSPLNLSSSRNTQGYLYTAEGAQEEPQVEPLDLSLPKQQGELLERSTITSVYQNSVYSVQEEPLNLSCAKKEPQKDSCVTDSEPVVNVIPPSANPINIAIPTVTAQLPTIVAIADQNSVPCLRALAANKQTILIPQVAYTYSTTVSPAVQEPPLKVIQPNGNQDERQDTSSEGVSNVEDQNDSDSTPPKKKMRKTENGMYACDLCDKIFQKSSSLLRHKYEHTGKRPHECGICKKAFKHKHHLIEHMRLHSGEKPYQCDKCGKRFSHSGSYSQHMNHRYSYCKREAEERDSTEQEEAGPEILSNEHVGARASPSQGDSDERESLTREEDEDSEKEEEEEDKEMEELQEEKECEKPQGDEEEEEEEEEVEEEEVEEAENEGEEAKTEGLMKDDRAESQASSLGQKVGESSEQVSEEKTNEA
For the molecule B2, in assay [3], the binding result is “binds”.

B3: ZEB1 (endogenous, mouse breast stromal CAFs) (protein, UniProt Q64318 1-1117)
chain: MADGPRCKRRKQANPRRNNVTNYNTVVEANSDSDDEDKLHIVEEESITDAADCEGGMPDDELPADQTVLPGGSDRGGGAKNCWQDNVKDNECDSDAENEQNHDPNVEEFLQQQDTAVIYPEAPEEDQRQGTPEASSHDENGTPDAFSQLLTCPYCDRGYKRFTSLKEHIKYRHEKNEDNFSCSLCSYTFAYRTQLERHMTSHKSGREQRHVTQSGGNRKFKCTECGKAFKYKHHLKEHLRIHSGEKPYECPNCKKRFSHSGSYSSHISSKKCISLMPVNGRPRSGLKTSQCSSPSLSTSPGSPTRPQIRQKIENKPLQEPLSVNQIKTEPVDYEFKPIVVASGINCSTPLQNGVFSSGGQLQATSSPQGVVQAVVLPTVGLVSPISINLSDIQNVLKVAVDGNVIRQVLETNQASLASKEQEAVSASPIQQGGHSVISAISLPLVDQDGTTKIIINYSLEQPSQLQVVPQNLKKEIPAPTNSCKSEKLPEDLTVKSETDKSFEGARDDSTCLLCEDCPGDLNALPELKHYDPECPAQPPPPAPATEKPESSASSAGNGDLSPSQPPLKNLLSLLKAYYALNAQPSTEELSKIADSVNLPLDGVKKWFEKMQAGQIPGQSPDPPSPGTGSVNIPTKTDEQPQPADGNEPQEDSTRGQSPVKIRSSPVLPVGSAMNGSRSCTSSPSPLNLCSARNPQGYSCVAEGAQEEPQVEPLDLSLPKQQGELLERSTVSSVYQNSVYSVQEEPLNLSCAKKEPQKDSCVTDSEPVVNVVPPSANPINIAIPTVTAQLPTIVAIADQNSVPCLRALAANKQTILIPQVAYTYSATVSPAVQEPPVKVIQPNGNQDERQDTSSEGVSTVEDQNDSDSTPPKKKTRKTENGMYACDLCDKIFQKSSSLLRHKYEHTGKRPHECGICRKAFKHKHHLIEHMRLHSGEKPYQCDKCGKRFSHSGSYSQHMNHRYSYCKRGAEDRDAMEQEDAGPEVLPEVLATEHVGARASPSQADSDERESLTREEDEDSEKEEEEEDKEMEELQEGKECENPQGEEEEEEEEEEEEEEEEEEEVEADEAEHEAAAKTDGTVEVGAAQQAGSLEQKASESEMESESESEQLSEEKTNEA
B3: in assay [4], the binding entry is “binds”.
